Where a name gives a salt, the structure may show the parent alone. Whole data set: some 1,000 compounds, median “cFRET/donor change relative to DMSO, normalised to beta-lapachone positive control (supercomplex I-IV assembly)” near 0.18, cut for the lowest 2% near -1. The list shows a part of the results.

The subject of this test is C2C12 (NDUFB8-AcGFP / COX8A-DsRed-Monomer FRET reporter). Nature of the test: cFRET/donor change relative to DMSO, normalised to beta-lapachone positive control (supercomplex I-IV assembly) (fraction of beta-lapachone effect); higher = more respiratory supercomplex assembly. Conditions: 40 µM; 24 h. The method, then: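 Cells were treated with 40 uM compound for 24 h and imaged on an IN Cell Analyzer 6000. Corrected FRET was divided by donor signal (cFRET/donor) and measured in two replicate experiments. The score is (mean cFRET/donor of compound - mean DMSO) / (mean beta-lapachone 40 uM - mean DMSO). Compounds flagged for prominent cell death, abnormal morphology or decreased cell number were excluded.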
For the compound `O=C(N[C@H]1CN2CCC1CC2)c1cc2ccoc2cn1`, the cFRET/donor change is -0.39.
`C=C(C)[C@H]1CN[C@H](C(=O)O)[C@H]1CC(=O)O` [Kainic acid] registered a cFRET/donor change of 0.149.
With `O=C(N[C@H]1CN2CCC1CC2)c1ccc(Cl)cc1` the figure was 0.638; with `O=[N+]([O-])c1ccc2nc(N3CCNCC3)ccc2c1` [Quipazine, 6-nitro-, maleate], 0.153; with `N#Cc1ccc(N2CCN(C(=O)COc3ccc4[nH]cc(CCN)c4c3)CC2)cc1` [Donitriptan monohydrochloride], 0.152.
`c1ccc2c(N3CCNCC3)cccc2c1` [1-(1-Naphthyl)piperazine hydrochloride] displayed a cFRET/donor change of 0.293.
With `N=C(N)NN` [Aminoguanidine hemisulfate] the figure was 0.162.
The figure for `N=C(N)NN` [Aminoguanidine hydrochloride] is -0.0493; for `CC(C)N(CCC(C(N)=O)(c1ccccc1)c1ccccn1)C(C)C` (configuration not stated) [Disopyramide phosphate] it is 0.118; for `CC(C)N(CCC(C(N)=O)(c1ccccc1)c1ccccn1)C(C)C` (configuration not stated) [Disopyramide] it is -0.199.
In turn, `CC(Cc1ccc(OCC(=O)O)cc1)NCC(O)c1cccc(Cl)c1` (configuration not stated) came in with a cFRET/donor change of 0.271.
The figure for `CC(C)=CCOc1c2occc2cc2ccc(=O)oc12` [Imperatorin] is 0.183; for `C=CCN1C[C@H](C)N([C@H](c2ccc(C(=O)N(CC)CC)cc2)c2cccc(OC)c2)C[C@H]1C` it is 0.538; for `O=[N+]([O-])c1cc(O)c(O)c([N+](=O)[O-])c1` [3,5-Dinitrocatechol] it is -0.196.
With `C[C@H](N)CN1CCc2ccc(Br)cc21` [VER-3323 hemifumarate salt] the figure was 0.26; with `CN1[C@@H]2CC[C@H]1C[C@@H](OC(=O)[C@H](CO)c1ccccc1)C2` [L-Hyoscyamine], 0.00396; with `Clc1cnc(Oc2ccc(Oc3ncc(Cl)cc3Cl)cc2)c(Cl)c1`, 0.196.
Consider `CNCCc1ccc(O)c(O)c1` [N-Methyldopamine hydrochloride], for which the cFRET/donor change is 0.343.
Compound `COc1ccc2c(c1)[C@]13CCCC[C@@H]1[C@H](C2)N(C)CC3` [Dextromethorphan hydrobromide monohydrate] gave a cFRET/donor change of 0.421.
With `CCCN1CCC[C@@H]2Cc3nc(N)ncc3C[C@H]21` [Quinelorane dihydrochloride] the figure was 0.181; with `CNCC(O)c1ccc(O)cc1` (racemic) [(±)-Synephrine], 0.505; with `CC(Cc1ccc(O)cc1)NCC(O)c1cc(O)cc(O)c1` (configuration not stated) [Fenoterol hydrobromide], 0.255.
The figure for `C1CCc2nnnn2CC1` [Pentylenetetrazole] is 0.498; for `CC(C)(C)c1cc(C(C)(C)C)c2c(c1)C(O)(C(F)(F)F)C(=O)O2` (racemic) it is 0.569.
Turning to `O=c1[nH]c2ccccc2n1CCCN1CCC(n2c(=O)[nH]c3cc(Cl)ccc32)CC1` [Domperidone], the cFRET/donor change is 0.254.
The figure for `NC(N)=NOCC[C@H](N)C(=O)O` [L-Canavanine sulfate] is -0.00844; for `NC(N)=NOCC[C@H](N)C(=O)O` [L-Canavanine] it is 0.0375.
`N[C@@H](Cn1oc(=O)[nH]c1=O)C(=O)O` [(+)-Quisqualic acid] displayed a cFRET/donor change of 0.0742.
With `C[N+]1(C)CCOC(O)(c2ccc(-c3ccc(C4(O)C[N+](C)(C)CCO4)cc3)cc2)C1` (configuration not stated) [Hemicholinium-3] the figure was -6.84e-05; with `Nc1ccncc1` [4-Aminopyridine], 0.364; with `CC[C@@H](C(N)=O)N1CCCC1=O` [Levetiracetam], -0.109.
The figure for `CCS(=O)(=O)Nc1cccc(C(=C2CCCCC2)c2cnc[nH]2)c1` is 0.149; for `Cc1[nH]c2ccc(O)cc2c1CCN` [2-Methyl-5-hydroxytryptamine maleate] it is -0.273; for `COc1ccc(C(=O)N2CCCC2=O)cc1` [Aniracetam] it is 0.184.
`CCCCCCCCCCCCCC(=O)O[C@@H]1[C@@H](C)[C@@]2(O)[C@@H](C=C(CO)C[C@]3(O)C(=O)C(C)=C[C@@H]23)[C@@H]2C(C)(C)[C@]12OC(C)=O` [Phorbol 12-myristate 13-acetate] had a cFRET/donor change of -0.00691.
On to `O=C1/C(=C/c2ccccc2)C[C@@]2(O)[C@H]3Cc4ccc(O)c5c4[C@@]2(CCN3CC2CC2)[C@H]1O5` [BNTX maleate salt hydrate], for which the cFRET/donor change is 0.649.
Consider `CN1CCC(c2c[nH]c3ccc(O)cc23)CC1`, for which the cFRET/donor change was determined as 0.0828.
The figure for `CC(N)Cc1c[nH]c2ccc(OCc3cccs3)cc12` (configuration not stated) is 0.478.
The figure for `CC(C)(C)OC(=O)NC1[C@H]2CNC[C@@H]12` (some centres not stated) is 0.223.
With `C[N+](C)(C)CC#CCN1CCCC1=O` [Oxotremorine methiodide] the figure was -0.0709.
Consider `NC(=O)c1ccc(OCC(O)CN2CC=C(c3ccc(F)cc3)CC2)cc1` (configuration not stated), for which the cFRET/donor change was 0.0729.
In the case of `NC(=O)CN1CC(O)CC1=O` (configuration not stated) [Oxiracetam], the cFRET/donor change turned out to be 0.345.
With `CC[C@@]1(O)C(=O)OCc2c1cc1n(c2=O)Cc2cc3ccccc3nc2-1` [(S)-(+)-Camptothecin] the figure was -0.169; with `NC(CCP(=O)(O)O)C(=O)O` (racemic) [(±)-2-Amino-4-phosphonobutyric acid], 0.0445; with `CN1C[C@H](C(=O)N[C@]2(C)O[C@@]3(O)[C@@H]4CCCN4C(=O)[C@H](Cc4ccccc4)N3C2=O)C[C@@H]2c3cccc4[nH]cc(c34)C[C@H]21` [Dihydroergotamine methanesulfonate], 0.0998.
With `C[N+]1(C)[C@@H]2CC[C@H]1C[C@@H](OC(=O)C(CO)c1ccccc1)C2` (some centres not stated) [Atropine methyl bromide] the figure was 0.282.
The figure for `C[N+]1(C)[C@@H]2CC[C@H]1C[C@@H](OC(=O)C(CO)c1ccccc1)C2` (some centres not stated) [Atropine methyl nitrate] is 0.332.
`C[N+](C)(C)CCCCCCCCCC[N+](C)(C)C` [Decamethonium dibromide] had a cFRET/donor change of 0.584.
The figure for `N=C(N)c1ccc(CS(=O)(=O)F)cc1` [4-Amidinophenylmethanesulfonyl fluoride hydrochloride] is 0.194.
The figure for `CC(CCc1ccccc1)NC(C)C(O)c1ccc(O)cc1` (configuration not stated) [Nylidrin hydrochloride] is -0.016.
With `OC1CCCCC1N1CCC(c2ccccc2)CC1` (racemic) [(±)-Vesamicol hydrochloride] the figure was 0.446; with `CCCN1C[C@H](CSC)C[C@@H]2c3cccc4[nH]cc(c34)C[C@H]21` [Pergolide methanesulfonate], 0.212.
In turn, `CCCCc1ccc(C(=O)O)nc1` [Fusaric acid] showed a cFRET/donor change of 0.216.
The compound `N.N.[Cl][Pt][Cl]` [Cisplatin] displayed a cFRET/donor change of 0.276.
Compound `C[N+](C)(C)CC#CCOC(=O)Nc1cccc(Cl)c1` returned a cFRET/donor change of 0.565.
For the compound `Cc1ncc(CNC(=O)N(CCCl)N=O)c(N)n1` [Nimustine hydrochloride], the cFRET/donor change was found to be 0.109.
As to `COc1ccc2[nH]cc(CCN)c2c1` [O-Methylserotonin hydrochloride], the cFRET/donor change came to 0.535.
The figure for `CC(N)Cc1c[nH]c2ccc(O)cc12` (stereo not drawn) [alpha-Methyl-5-hydroxytryptamine maleate] is -0.286; for `c1ccc(C2(c3ccccc3)CC2C2=NCCN2)cc1` (configuration not stated) [Cibenzoline succinate] it is 0.549; for `CCCN(CCC)C1CCc2ccc(O)cc2C1` (stereo not drawn) [R-(+)-7-Hydroxy-DPAT hydrobromide] it is 0.116.
The figure for `CN1CCC[C@@H]1Cc1c[nH]c2ccc(Nc3ncccc3[N+](=O)[O-])cc12` is 0.0254; for `O=C1CCCN1CC#CCN1CCCC1` [Oxotremorine sesquifumarate salt] it is -0.0621; for `NNC(=O)c1ccc(O)cc1` [4-Hydroxybenzhydrazide] it is -0.0961.
The figure for `NCCCP(=O)(O)O` [3-Aminopropylphosphonic acid] is -0.0863.
The compound `CNCCc1c[nH]c2ccc(O)cc12` [N-omega-Methyl-5-hydroxytryptamine oxalate salt] came in with a cFRET/donor change of 0.0949.
With `COc1ccc(Cc2nccc3cc(OC)c(OC)cc23)cc1OC` [Papaverine hydrochloride] the figure was 0.155.
For `NNC(N)=O` [Semicarbazide hydrochloride], the cFRET/donor change was determined as 0.232.
Regarding `O=C[C@H](Cl)[C@@H](O)[C@H](O)[C@H](O)CO` [2-Chloro-2-deoxy-D-glucose], the cFRET/donor change amounted to 0.124.
Consider `C=C(C)[C@H]1Cc2c(ccc3c2O[C@@H]2COc4cc(OC)c(OC)cc4[C@@H]2C3=O)O1` [Rotenone], for which the cFRET/donor change was determined as 0.333.
With `COC(=O)C1=CCCN(C)C1` [Arecoline hydrobromide] the figure was 0.275.
As for `Fc1ccc(C(OCCN2CCN(CCCc3ccccc3)CC2)c2ccc(F)cc2)cc1`, the cFRET/donor change came to 0.565.
With `NC(=O)COc1c(F)cc(SCCNS(=O)(=O)c2ccccc2)cc1F` the figure was 0.186.
With `CCCN1CCC[C@H](c2cccc(O)c2)C1` [R(+)-3PPP hydrochloride] the figure was 0.436; with `C[N+]1(C)CCN(c2ccccc2)CC1` [1,1-Dimethyl-4-phenyl-piperazinium iodide], 0.15; with `CCn1cc(C(=O)O)c(=O)c2cc3c(cc21)OCO3` [Oxolinic acid], -0.248.
With `C[N+]1(C)[C@@H]2C[C@@H](OC(=O)[C@H](CO)c3ccccc3)C[C@H]1[C@@H]1O[C@@H]12` [(-)-Scopolamine methyl bromide] the figure was 0.155; with `CN(C(=O)Cc1ccc(Cl)c(Cl)c1)C(CN1CCCC1)c1cccc(OCC(=O)O)c1` (configuration not stated) [ICI 204,448 hydrochloride], 0.0516.
As to `NCCc1ccc(O)cc1` [4-Hydroxyphenethylamine hydrochloride], the cFRET/donor change was found to be 0.427.
With `NCC(O)c1ccc(O)cc1` (racemic) [(±)-Octopamine hydrochloride] the figure was -0.284; with `C[C@@H](N)Cc1cnc[nH]1` [Histamine, R(-)-alpha-methyl-, dihydrochloride], 0.0952; with `Clc1cc(I)cc(Cl)c1NC1=NCCN1` [p-Iodoclonidine hydrochloride], 0.369.
With `C[C@@H]1O[C@@H](O[C@H]2C[C@@H](O)[C@]3(CO)[C@H]4[C@H](O)C[C@]5(C)[C@@H](C6=CC(=O)OC6)CC[C@]5(O)[C@@H]4CC[C@]3(O)C2)[C@H](O)[C@H](O)[C@H]1O` [Ouabain] the figure was -0.0497.

Source of the values: the supplement of paper PMC9877034.
